Experimental data published in article doi:10.1101/2022.10.26.513826.
Results are given in words; binding and its absence hold for the method and conditions named. Some results given as binding are weak or reduced against the parent protein; the word gives no strength.

Target: HEAT SHOCK …ON FACTOR A7b (HSFA7b) (Arabidopsis thaliana) (UniProt Q9M1V5)
Assay: two-hybrid

binding: binds
B1: HEAT SHOCK …ON FACTOR A7b (HSFA7b) (protein, UniProt Q9M1V5 1-282)
chain: MDPSSSSRARSMPPPVPMEGLQEAGPSPFLTKTFEMVGDPNTNHIVSWNRGGISFVVWDPHSFSATILPLYFKHNNFSSFVRQLNTYGFRKIEAERWEFMNEGFLMGQRDLLKSIKRRTSSSSPPSLNYSQSQPEAHDPGVELPQLREERHVLMMEISTLRQEEQRARGYVQAMEQRINGAEKKQRHMMSFLRRAVENPSLLQQIFEQKRDREEAAMIDQAGLIKMEEVEHLSELEALALEMQGYGRQRTDGVERELDDGFWEELLMNNENSDEEEANVKQD
